Results on 1 compound are retold here after patent US20120070390A1, “Topical drug delivery system with dual carriers” (priority 2010, published 2012).

The test system of one assay is MRSA. In words: Petri dish zone of inhibition test. Format: cell-based, Methicillin Resistant Staph Aureus. The conditions noted are these: FIG. 17, identical size drops (diameters of ZOA).
In a further assay the test system is Acinetobacter baumannii. In words: Petri dish zone of inhibition test. The assay is classed as cell-based. The conditions noted are these: Acinetobacter baumanii, FIG. 24; identical size drops.
The test system of the next assay is E. coli. In words: Petri dish zone of inhibition test. The assay is classed as cell-based. As to conditions: FIG. 19, identical size drops.
Another assay deals with Acinetobacter lwoffi. In words: Petri dish zone of inhibition test. The assay is classed as cell-based. The conditions noted are these: FIG. 23, identical size drops.
Another assay has as its system Staph aureus. Description: Petri dish zone of inhibition comparison with control agents. The assay is classed as cell-based, Staphylococcus aureus. As to conditions: FIG. 16, identical size drops (diameters of ZOA).
A further assay relates to Pseudomonas aeruginosa. In words: Petri dish zone of inhibition test. As to conditions: FIG. 21, identical size drops. The assay is classed as cell-based.
Another assay deals with Klebsiella pneumoniae. In words: Petri dish zone of inhibition test. Format: cell-based. As to conditions: FIG. 18, identical size drops.
The next assay relates to Proteus vulgaris. Description: Petri dish zone of inhibition test. Format: cell-based. The conditions noted are these: FIG. 20, identical size drops.

As to `O=C(O)c1cn(C2CC2)c2cc(N3CCNCC3)c(F)cc2c1=O` [Ciprofloxacin], the “zones of inhibition of control agents compared with the formulations of the invention” value in the assay on MRSA, in the assay on Acinetobacter baumannii, with E. coli, with Acinetobacter lwoffi, in the assay with Staph aureus and in the assay on Pseudomonas aeruginosa was “considerably reduced zones of inhibition” each time. Besides, the “zones of inhibition of control agents compared with the formulations of the invention” value in the assay with Klebsiella pneumoniae and in the assay on Proteus vulgaris was “considerably reduced zones of inhibition” in each case.
